The values below come from patent publication US20180119149.

For at least one entry, the source does not settle the construct or the ends of the probe. For some of these results: Negatives hold for the conditions tested. For some of these results: At least one result comes from cells or an extract, where the contact may be indirect. For some of these results: Whether high values mean tight binding is not given here for every scale. For some of these results: Protein sequences can lack the tags named with them. A value given as a limit tells only on which side of the number the result lay.

The target of the first data set is HSA (human serum albumin) (Homo sapiens) (UniProt P02768). The experiment in a line: binding assay. The conditions noted are these: HSA-coated beads control; purified native protein; label: FAM; single-stranded DNA.
For “GGCGCTTACACGCAGGTTGACTCAGACTAGACTCTACAGC [H12]”, the binding result was “no binding”.

The target of a further data set is ErbB3 (HER3) (UniProt P21860). The experiment in a line: binding assay. The conditions noted are these: HER2 signal more than 10-fold higher; 10 nM aptamer; purified recombinant protein; protein details: coupled to magnetic beads; label: FAM; single-stranded DNA.
Turning to “GGCGCTTACACGCAGGTTGACTCAGACTAGACTCTACAGC [H12]”, the binding signal (fraction of HER2 signal) was under 0.1.

For a further data set, the target named is T1, ErbB4 (HER4) (UniProt Q15303).
T1 sequence (looked up, limits assumed): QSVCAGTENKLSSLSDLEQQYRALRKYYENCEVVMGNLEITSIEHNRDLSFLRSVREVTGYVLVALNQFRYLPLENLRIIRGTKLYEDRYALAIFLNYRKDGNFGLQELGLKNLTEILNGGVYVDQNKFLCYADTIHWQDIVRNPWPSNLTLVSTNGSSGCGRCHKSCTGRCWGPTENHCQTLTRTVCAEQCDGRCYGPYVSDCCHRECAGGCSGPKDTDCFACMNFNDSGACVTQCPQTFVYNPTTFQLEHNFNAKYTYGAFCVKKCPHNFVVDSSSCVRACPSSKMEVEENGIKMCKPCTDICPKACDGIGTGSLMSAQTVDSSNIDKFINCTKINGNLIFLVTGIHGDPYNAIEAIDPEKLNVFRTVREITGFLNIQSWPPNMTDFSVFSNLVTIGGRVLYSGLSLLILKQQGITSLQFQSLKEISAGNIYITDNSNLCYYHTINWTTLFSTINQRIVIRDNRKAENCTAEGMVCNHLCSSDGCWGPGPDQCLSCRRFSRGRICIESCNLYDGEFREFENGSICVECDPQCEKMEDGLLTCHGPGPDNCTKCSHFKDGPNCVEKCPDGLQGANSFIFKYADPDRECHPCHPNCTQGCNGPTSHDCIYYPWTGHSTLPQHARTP
The experiment in a line: binding assay. As to conditions: HER2 signal more than 10-fold higher; 10 nM aptamer; purified recombinant protein; protein details: coupled to magnetic beads; label: FAM; single-stranded DNA.
“GGCGCTTACACGCAGGTTGACTCAGACTAGACTCTACAGC [H12]”: the binding signal (fraction of HER2 signal) is under 0.1.

A further data set deals with HER2 on cells (SK-BR3, MCF-7) (Homo sapiens) (UniProt P04626). Description: binding assay. As to conditions: confocal imaging, 50 nM; co-localized with anti-HER2 antibody; no signal on HER2-negative MDA-MB-435 wt; protein on the cell surface; label: FAM; single-stranded DNA.
For “GGCGCTTACACGCAGGTTGACTCAGACTAGACTCTACAGC [H12]”, the binding result is listed as “binds”.

The target in another data set is EGFR (UniProt P00533). Description: binding assay. The conditions noted are these: HER2 signal more than 10-fold higher; 10 nM aptamer; purified recombinant protein; protein details: coupled to magnetic beads; label: FAM; single-stranded DNA.
On to “GGCGCTTACACGCAGGTTGACTCAGACTAGACTCTACAGC [H12]”, for which the binding signal (fraction of HER2 signal) is under 0.1.

In a further data set the target is HER2 (ErbB2) (Homo sapiens) (UniProt P04626). The experiment in a line: binding assay. As to conditions: bead-based fluorescence, with formaldehyde cross-linking, 37 C, HEPES, 5 mM MgCl2, 1 mM CaCl2; purified recombinant protein; label: FAM; single-stranded DNA.
As to “GGCGCTTACACGCAGGTTGACTCAGACTAGACTCTACAGC [H12]”, the Kd came out at 6.4 nM.

Still in this data set, the particulars now being: bead-based fluorescence, without formaldehyde; purified recombinant protein; label: FAM; single-stranded DNA.
For “GGCGCTTACACGCAGGTTGACTCAGACTAGACTCTACAGC [H12]”, the Kd was determined as 8.2 nM.

The data set is the same for the next values; noted with them: bead-based fluorescence; purified recombinant protein; label: FAM; single-stranded DNA.
For “GTCGAGAGTATAATATTTCCGCTTAAACTAGTGTGTCGCC [H29]”, the binding result is given as “binds”. Consider “TGCCCCTAGGCGTGGCTGCAGCGTCTAATTGTGTTTATGA [H1]”, for which the binding result is “binds”.

“CAATTGGCGCGGGGATTCCGCACCCTCGAATGTTCAGGGC [H32]”: the binding result is “binds”. Turning to “GAATCCTTCACTGGTGGGTTCTGTTTCGGCTTTTTAAAAT [H20]”, the binding result was “binds”. Still for that read-out and setting: then “GATTGGCAGTTAGCGTTTTTCTGAGCATTCGAAGGTTATA [H17]”, with “binds”. As for “GTGTGCAGCAACGAGACTCAGCGACTAGCCCGTACGCCTG [H9]”, the binding result was “binds”. As to “ATTGGGTCTATGGGTTGAATCATTTCGGACGTTTTACGTA [H2]”, the binding result is reported as “binds”.

The data set is the same for the next values; noted with them: range over all sequences; 10 nM, bead fluorescence; purified recombinant protein; label: FAM; single-stranded DNA.
For “CATGCGGTACCGGTGAAACTAGAACGAATTTAAAGGCGAC [H21]”, the binding result is on record as “binds”. Same read-out and setting: the result for “CTACGCAACAATCATAGGTGATACCGGGCTGTTGTACAAT [H4]” reads “binds”.

“CGACATGTGCTGCGTGTACGACTGTGTGCTCTATCTCGAG [H3]”: the binding result is on record as “binds”. With “ACAATTGAGGCTATCAGTTCTGCTAGAAGTTGACTGGATC [H54]”, the binding result is on record as “binds”. The same measure, in the same setting: the result for “CCTTAGGCTAGGGCAATTTCAACTCGCTTGACGTCGAATA [H22]” reads “binds”; that for “GGAGTTTTAAGCGTTTGTGGCGAGATAACCTGGTTGTGCA [H47]”, “binds”; that for “GTAGGGATCGCTAGAAGGGTCAAAGTTAGGTCATGTAGGG [H5]”, “binds”. As to “GGAGTTATCCATTCGCACATAACTGCATTCATCCGCTTAG [H35]”, the binding result is given as “binds”. On to “AACTGAGTCCATGCTACTAGCAGCCTGAGGTGGATACTCT [H50]”, for which the binding result is “binds”.

With “TGTCAGCTAACGTGGGTTTGTTACCGGTGGCTTAGTTAGC [H30]”, the binding result is given as “binds”. On to “AGTCAGGGTGAAGAACCCGTGTCACCGGTCATTTTCTAAT [H28]”, for which the binding result was “binds”. For “AACCTTAGTAGGTACTCATGACGTGGTCCAAGCCTTGTTT [H7]”, the binding result was “binds”. Consider “ACCATGAACAGCTGGCATTCCATGGATCTAACGCGGAATT [H31]”, for which the binding result was “binds”. For the sequence “CCCAGATGAGGAATGAGGGCCTCACGTAGGGTGTGCAGCC [H48]”, the binding result is recorded as “binds”. As to “GGGCACGCATAGCAAGGCGTATATGAAGCGTCAGTTTTCC [H34]”, the binding result is reported as “binds”. The same measure, in the same setting: the result for “GCAAGACATAACGTATAATCATGGCGATACCCTGCTTCCG [H49]” reads “binds”; that for “GGGTATGATTTTGGACCCGAGTAGGCTATTTTAATTCAAA [H51]”, “binds”; that for “CAGAACTGTGACATGGCTTGGCCCATGACTTAAAGGAGTG [H52]”, “binds”.

Take “TAGTCTGATGCGATATACTCGGCGGTCGGGGGGGTAGGTT [H46]”: the binding result is listed as “binds”. For “TTGAGTCATTACCGTAAGTACATCAACTACTTAGTTAGTC [H26]”, the binding result is reported as “binds”. For “TGGAGTGATTGCTCTAGTAGGGTTTCATGGGGCCCGATCC [H11]”, the binding result was “binds”.

For “TCTCTACCTGATGTATAATTTACGTCACTAAGTCCCGCCG [H55]”, the binding result is “binds”. Same read-out and setting: then “AACCGTAGGTGAAACGGAAGTCCCGGTTGGGGATCAATAT [H6]”, with “binds”. Consider “TGGGAAGTGTTACAATTCTGGTAGGGGTGTGGATTTAGGG [H33]”, for which the binding result is “binds”. On the same count and under the same terms, the result for “CATATGAACGTTTCTACAATTTTAACGAGACAGTTTTGCG [H53]” reads “binds”. On to “GAGGGGGGGCCGCTACTGAGCACTCAAAGACGCAATGCCC [H8]”, for which the binding result was “binds”.
